For some assays here: No signal at the amounts used counts as a negative. For some assays here: The exact form of at least one protein or probe is not confirmed.
How the values were obtained:
[1] = tested on: alpha-thrombin (native) (Homo sapiens); assay: ELONA; conditions: purified native protein, single-stranded DNA
[2] = molecular target: thrombin / Factor II in citrated plasma or whole blood (Homo sapiens) (UniProt P00734); assay: inhibition of the protein; conditions: protein in an extract, protein details: endogenous, Rockland citrated blood R214-0050, single-stranded DNA; for functional effect of the aptamer (% reduction of Factor II activity): 2 uM in citrated plasma, 2 h
[3] = tested on: alpha-thrombin (native) (Homo sapiens); assay: binding assay; conditions: CITED, purified native protein, single-stranded DNA
[4] = molecular target: thrombin / Factor II in rat whole blood (Rattus norvegicus) (UniProt P18292); assay: inhibition of the protein; conditions: protein in an extract, protein details: endogenous, single-stranded DNA, dose not given here
[5] = tested on: clot-bound thrombin (Homo sapiens); assay: inhibition of the protein; conditions: protein in an extract, protein details: endogenous, washed clots from platelet-rich plasma, single-stranded DNA; for functional effect of the aptamer: concentration-dependent, 50 mM Tris pH 7.4, 100 mM NaCl, 37 C
[6] = tested on: thrombin (inhibitor screening kit enzyme); assay: inhibition of the protein; conditions: dose-dependent inhibition of AMC substrate cleavage, 37 C, protein details: Abcam ab197007 kit, single-stranded DNA, dose not given here

## AGGGGCTCTAGGGTGGGTAGGATGGTGAGACCGCAGCGT [AYA1809007]
[1]; label: biotin (ELISA)
  binding result: binds
[2]; PT 2-fold, APTT 3-fold increase, label: biotin (ELISA)
  functional effect of the aptamer (% reduction of Factor II activity): > 75

## AGTCCGTGGTAGGGCAGGTTGGGGTGACT [HD22]
[3]; binds exosite II
  binding result: binds

## GCGGTGTTGCTGGGGTTGGGAGGTTGGAGGAAGCAATCGC [3'PEG AYA1809002]
[4]; 3' PEG spacer (3Sp18), variant of AYA1809002
  functional effect of the aptamer: active

## GCGGTGTTGCTGGGGTTGGGAGGTTGGAGGAAGCAATCGC [AYA1809002]
[5]; stronger than AYA1809004, label: 5' biotin (ELISA, BLI)
  functional effect of the aptamer: active
[6]; label: 5' biotin (ELISA, BLI)
  functional effect of the aptamer: active
[4]; label: 5' biotin (ELISA, BLI)
  functional effect of the aptamer: active

## GGTTGGTGTGGTTGG [HD1]
[3]; binds exosite I of prothrombin and thrombin
  binding result: binds
[5]; CITED, in vivo, dose not given here
  functional effect of the aptamer (% inhibition of clot-bound thrombin): > 80

## TCGTCAAGGTACGGTTGGGGGGGTGGGTGTTGACGTTGAA [3'Chol AYA1809004]
[2]; 3' cholesterol-TEG (3CholTEG), variant of …, dose not given here
  functional effect of the aptamer: not active

## TCGTCAAGGTACGGTTGGGGGGGTGGGTGTTGACGTTGAA [AYA1809004]
[1]; 20 mM Tris pH 7.5, 150 mM NaCl, 0.1% BSA, 0.1% Tween 20, salmon sperm DNA, RT, competed by 100-fold unlabeled aptamer, label: 5' biotin (ELISA)
  Kd: 13 nM
[5]; less than AYA1809002, label: 5' biotin (ELISA)
  functional effect of the aptamer: active
[6]; label: 5' biotin (ELISA)
  functional effect of the aptamer: active
[2]; PT 3-fold, APTT about 4-fold increase, label: 5' biotin (ELISA)
  functional effect of the aptamer (% reduction of Factor II activity): > 85
